Reference: publication PMC3152785
These are yes or no findings as the source states them, for the method shown. Binding seen in cells or lysates may run through a third protein. Some entries that bind do so weakly or less than the wild type. Sequences can lack the tags named with a protein.

Chains of the proteins cited; added tags and fusions are not shown.
UniProt P03254: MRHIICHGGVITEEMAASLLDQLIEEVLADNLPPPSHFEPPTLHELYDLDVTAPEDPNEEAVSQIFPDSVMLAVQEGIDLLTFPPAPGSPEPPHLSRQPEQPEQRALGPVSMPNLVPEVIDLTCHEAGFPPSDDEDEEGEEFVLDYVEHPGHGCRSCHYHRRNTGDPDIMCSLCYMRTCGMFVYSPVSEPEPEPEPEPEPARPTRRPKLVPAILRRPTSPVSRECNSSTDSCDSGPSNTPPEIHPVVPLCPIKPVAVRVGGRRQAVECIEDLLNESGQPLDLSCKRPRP
UniProt P03129: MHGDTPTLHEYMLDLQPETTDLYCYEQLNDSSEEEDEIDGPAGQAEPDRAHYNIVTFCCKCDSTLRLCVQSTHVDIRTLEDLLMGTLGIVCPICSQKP

Legend:
Test in all cases: pull-down; 0.5 mg of precleared HeLa cell lysate with Myc-tagged Spry proteins incubated with 40 μg of GST-fusion protein for 1 h at 4°C, Glutathione Sepharose 4B; bound proteins by SDS-PAGE and anti-Myc immunoblot; only the target purified
[1] = target: GST-Ad12 E1A13S fusion protein (adenovirus type 12 E1A 266R protein, translated from the 13S mRNA) (Adenovirus serotype 12 (Ad12)) (UniProt P03259)
[2] = target: GST-Ad2-E1A13S fusion protein (E1A13S of the non-oncogenic adenovirus serotype 2) (Adenovirus serotype 2 (Ad2)) (UniProt P03254)
[3] = target: GST-HPV16-E7 fusion protein (E7 oncoprotein of Human papillomavirus type 16) (Human papillomavirus type 16 (HPV16)) (UniProt P03129)
[4] = target: GST-ΔNE1A13S (Ad12 E1A13S with a deletion of the first 29 N-terminal amino acids) (Adenovirus serotype 12 (Ad12)) (UniProt P03259)

| Binder | binding [1] | binding [2] | binding [3] | binding [4] |
| --- | --- | --- | --- | --- |
| Myc-tagged mouse Sprouty1 (Spry1) (protein, UniProt Q9QXV9 1-313) MDSPSQHGSHTSLVVIQPPAVEGRQRLDYDRDTQPATILSLDQIKAIRGSNEYTEGPSVARRPAPRTAPRPEKQERTHEIIPANVNSSYEHRPASHPGNARGSVLSRSTSTGSAASSGSSSSVSSEQGLLGRSPPTRPIPGHRSDRVIRTQPKQLLVEDLKASLKEDPTQHKFICEQCGKCKCGECTAPRALPSCLACDRQCLCSAESMVEYGTCMCLVKGIFYHCSNDDDGGSYSDNPCSCSQSHCCSRYLCMGALSLCLPCLLCYPPAKGCLKLCRGCYDWTHRPGCRCRNSNTVYCKLESCPSRAQGKLS | binds | binds | binds | binds weakly |
| Myc-tagged mouse Sprouty4 (Spry4) (protein, UniProt Q9WTP2 1-300) MEPPVPQSSVPVNPSSVMVQPLLDSRAPHSRLQHPLTILPIDQMKTSHVENDYIDNPSLAPATGPKRPRGGPPELAPTPARCDQDITHHWISFSGRPSSVSSSSSTSSDQRLLDHMAPPPVAEQASPRAVRLQPKVVHCKPLDLKGPTAPPELDKHFLLCEACGKCKCKECASPRTLPSCWVCNQECLCSAQTLVNYGTCMCLVQGIFYHCTNEDDEGSCADHPCSCSGSNCCARWSFMGALSVVLPCLLCYLPATGCVKLAQRGYDRLRRPGCRCKHTNSVICKAASGDTKTSRSDKPF | binds | – | – | – |
| Myc-tagged mouse Sprouty2 (Spry2) (protein, UniProt Q9QXV8 1-315) MEARAQSGNGSQPLLQTAHDSGRQRGEPDPRDALTQQVHVLSLDQIRAIRNTNEYTEGPTVVPRPGLKPAPRPSTQHKHERLHGLPEHRQPPRLQPSQVHSSRAPLSRSISTVSSGSRSSTRTSTSSSSSEQRLLGPSFSHGPAAADGIIRVQPKSELKPGDVKPLSKDDLGLHAYRCEDCGKCKCKECTYPRPLPSDWICDKQCLCSAQNVIDYGTCVCCVKGLFYHCSNDDEDNCADNPCSCSQSHCCTRWSAMGVMSLFLPCLWCYLPAKGCLKLCQGCYDRVNRPGCRCKNSNTVCCKVPTVPPRNFEKPT | binds | – | – | – |
